Data as given in paper doi:10.1101/2023.06.13.544862.
These are yes or no findings as the source states them, for the method shown. For some of these results: Binding seen in cells or lysates may run through a third protein. Some binding calls cover weakened binding; strength is not graded here. Where a sequence is shown, tags or fusion partners need not be part of it.

Chains of the proteins cited; added tags and fusions are not shown. Lines headed by an entry give the natural chain unless they say otherwise; changes in a name come on top. Residues count along the entry.
UniProt O75530, whole entry: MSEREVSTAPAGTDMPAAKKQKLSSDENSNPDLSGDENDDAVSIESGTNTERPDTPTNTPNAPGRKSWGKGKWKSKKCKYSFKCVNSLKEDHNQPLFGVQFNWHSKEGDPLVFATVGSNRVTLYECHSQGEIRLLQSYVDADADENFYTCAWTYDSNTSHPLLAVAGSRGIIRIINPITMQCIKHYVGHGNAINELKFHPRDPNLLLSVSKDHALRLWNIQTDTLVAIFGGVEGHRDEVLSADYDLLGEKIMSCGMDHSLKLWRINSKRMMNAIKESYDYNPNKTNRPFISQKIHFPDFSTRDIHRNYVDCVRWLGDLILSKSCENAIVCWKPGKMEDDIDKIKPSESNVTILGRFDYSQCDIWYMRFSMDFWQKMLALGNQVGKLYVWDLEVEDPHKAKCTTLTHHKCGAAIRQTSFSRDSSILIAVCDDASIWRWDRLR
UniProt O15550, whole entry: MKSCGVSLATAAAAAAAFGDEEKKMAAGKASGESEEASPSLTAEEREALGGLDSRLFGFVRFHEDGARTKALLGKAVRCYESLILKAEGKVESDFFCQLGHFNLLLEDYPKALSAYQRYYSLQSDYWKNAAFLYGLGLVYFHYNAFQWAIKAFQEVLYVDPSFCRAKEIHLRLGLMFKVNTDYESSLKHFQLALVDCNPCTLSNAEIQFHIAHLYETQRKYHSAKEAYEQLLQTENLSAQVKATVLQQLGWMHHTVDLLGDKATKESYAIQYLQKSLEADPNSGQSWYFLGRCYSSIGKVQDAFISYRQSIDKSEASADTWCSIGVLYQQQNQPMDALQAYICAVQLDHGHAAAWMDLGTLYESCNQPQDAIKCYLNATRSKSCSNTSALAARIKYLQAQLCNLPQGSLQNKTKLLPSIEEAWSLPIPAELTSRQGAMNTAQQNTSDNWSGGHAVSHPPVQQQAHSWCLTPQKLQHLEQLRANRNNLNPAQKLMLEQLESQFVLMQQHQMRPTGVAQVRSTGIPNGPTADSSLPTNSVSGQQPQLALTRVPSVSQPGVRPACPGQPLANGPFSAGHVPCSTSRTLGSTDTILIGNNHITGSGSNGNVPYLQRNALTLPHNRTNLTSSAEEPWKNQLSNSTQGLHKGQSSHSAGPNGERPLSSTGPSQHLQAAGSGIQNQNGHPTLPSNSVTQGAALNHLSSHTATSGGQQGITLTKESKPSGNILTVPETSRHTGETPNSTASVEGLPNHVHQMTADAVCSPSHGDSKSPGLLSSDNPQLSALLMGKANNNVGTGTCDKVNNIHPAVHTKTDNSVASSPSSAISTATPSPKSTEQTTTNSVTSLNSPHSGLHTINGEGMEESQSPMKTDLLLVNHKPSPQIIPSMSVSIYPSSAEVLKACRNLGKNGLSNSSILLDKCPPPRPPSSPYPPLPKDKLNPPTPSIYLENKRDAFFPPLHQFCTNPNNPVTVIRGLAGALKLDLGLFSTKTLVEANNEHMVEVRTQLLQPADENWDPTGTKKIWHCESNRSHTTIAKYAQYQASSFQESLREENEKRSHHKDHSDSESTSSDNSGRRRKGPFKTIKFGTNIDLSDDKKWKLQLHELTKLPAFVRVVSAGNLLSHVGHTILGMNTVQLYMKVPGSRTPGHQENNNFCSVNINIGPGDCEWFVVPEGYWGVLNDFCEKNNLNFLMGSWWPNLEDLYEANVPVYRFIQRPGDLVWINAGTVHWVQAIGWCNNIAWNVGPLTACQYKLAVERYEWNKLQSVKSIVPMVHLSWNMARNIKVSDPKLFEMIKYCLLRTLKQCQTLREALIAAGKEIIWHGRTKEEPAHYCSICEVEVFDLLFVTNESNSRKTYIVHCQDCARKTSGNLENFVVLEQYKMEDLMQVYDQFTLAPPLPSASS
UniProt O15054, 1339-1502: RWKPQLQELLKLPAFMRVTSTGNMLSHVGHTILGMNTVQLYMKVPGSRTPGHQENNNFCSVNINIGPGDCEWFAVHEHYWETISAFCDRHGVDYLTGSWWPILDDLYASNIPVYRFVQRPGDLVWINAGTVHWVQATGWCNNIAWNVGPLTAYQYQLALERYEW
UniProt O15054, whole entry: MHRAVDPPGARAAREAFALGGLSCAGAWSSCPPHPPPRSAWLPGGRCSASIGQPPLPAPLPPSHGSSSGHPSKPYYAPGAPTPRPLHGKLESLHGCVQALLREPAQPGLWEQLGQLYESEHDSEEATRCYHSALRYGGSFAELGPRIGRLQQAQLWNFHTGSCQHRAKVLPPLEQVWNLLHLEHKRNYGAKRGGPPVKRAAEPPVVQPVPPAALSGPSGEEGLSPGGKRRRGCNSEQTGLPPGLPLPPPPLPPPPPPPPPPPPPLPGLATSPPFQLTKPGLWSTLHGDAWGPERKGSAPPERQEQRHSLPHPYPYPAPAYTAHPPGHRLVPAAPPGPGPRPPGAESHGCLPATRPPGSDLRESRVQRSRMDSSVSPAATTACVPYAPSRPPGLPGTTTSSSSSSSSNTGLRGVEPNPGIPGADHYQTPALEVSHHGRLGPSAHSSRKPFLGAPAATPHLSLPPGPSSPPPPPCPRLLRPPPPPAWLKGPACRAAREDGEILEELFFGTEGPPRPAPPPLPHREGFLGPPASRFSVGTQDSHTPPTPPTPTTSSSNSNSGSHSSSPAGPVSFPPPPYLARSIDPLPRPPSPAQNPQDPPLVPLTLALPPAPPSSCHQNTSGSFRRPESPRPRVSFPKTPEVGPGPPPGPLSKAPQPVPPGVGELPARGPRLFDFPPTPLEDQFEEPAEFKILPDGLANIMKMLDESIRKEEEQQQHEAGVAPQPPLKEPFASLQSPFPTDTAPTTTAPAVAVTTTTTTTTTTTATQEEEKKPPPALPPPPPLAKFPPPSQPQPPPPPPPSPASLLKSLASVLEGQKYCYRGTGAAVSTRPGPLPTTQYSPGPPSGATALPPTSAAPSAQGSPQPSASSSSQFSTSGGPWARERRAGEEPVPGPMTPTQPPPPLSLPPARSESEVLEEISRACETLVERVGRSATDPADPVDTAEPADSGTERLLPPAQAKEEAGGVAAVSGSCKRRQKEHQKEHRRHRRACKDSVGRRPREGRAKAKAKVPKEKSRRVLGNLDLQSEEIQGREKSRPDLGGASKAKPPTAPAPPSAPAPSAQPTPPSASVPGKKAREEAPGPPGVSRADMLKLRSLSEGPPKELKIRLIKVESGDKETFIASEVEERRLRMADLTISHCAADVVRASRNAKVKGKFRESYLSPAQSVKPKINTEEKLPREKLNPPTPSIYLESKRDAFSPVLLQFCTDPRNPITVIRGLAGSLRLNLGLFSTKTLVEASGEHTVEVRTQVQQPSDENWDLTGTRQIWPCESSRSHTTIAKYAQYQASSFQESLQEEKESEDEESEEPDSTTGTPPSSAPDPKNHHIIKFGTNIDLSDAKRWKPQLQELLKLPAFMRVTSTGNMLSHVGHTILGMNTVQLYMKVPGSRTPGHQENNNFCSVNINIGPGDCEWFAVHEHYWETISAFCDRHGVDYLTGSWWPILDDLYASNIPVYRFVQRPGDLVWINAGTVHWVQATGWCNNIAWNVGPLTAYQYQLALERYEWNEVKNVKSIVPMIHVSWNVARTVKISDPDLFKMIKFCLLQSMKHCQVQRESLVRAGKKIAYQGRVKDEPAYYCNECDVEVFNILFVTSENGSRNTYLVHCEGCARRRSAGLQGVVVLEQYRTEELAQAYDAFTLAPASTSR

Key:
[1] = molecular target: HA-tagged EED, wild type (human) (UniProt O75530); assay: co-IP
[2] = molecular target: HA-tagged EED WD40 domain mutant W364A (human) (UniProt O75530); assay: co-IP
HA-tagged UTX = HA-tagged UTX (UniProt O15550); assay: co-IP
HA-tagged JMJD3 = HA-tagged JMJD3 (UniProt O15054); assay: co-IP
[3] = molecular target: JMJD3 JmjC domain (in vitro pull-downs) (UniProt O15054); assay: pull-down

Row | Binder | binding [1] | binding [2] | binding (HA-tagged UTX) | binding (HA-tagged JMJD3) | binding [3]
1 | 3xFlag-tagged NOP16 K29A (protein, UniProt Q9Y3C1 1-178) MPKAKGKTRRQKFGYSVNRKRLNRNARRAAAPRIECSHIRHAWDHAKSVRQNLAEMGLAVDPNRAVPLRKRKVKAMEVDIEERPKELVRKPYVLNDLEAEASLPEKKGNTLSRDLIDYVRYMVENHGEDYKAMARDEKNYYQDTPKQIRSKINVYKRFYPAEWQDFLDSLQKRKMEVE | binds |  |  |  | 
2 | 3xFlag-tagged NOP16 K106A and K107A double mutant (protein, UniProt Q9Y3C1 1-178) MPKAKGKTRRQKFGYSVNRKRLNRNARRKAAPRIECSHIRHAWDHAKSVRQNLAEMGLAVDPNRAVPLRKRKVKAMEVDIEERPKELVRKPYVLNDLEAEASLPEAAGNTLSRDLIDYVRYMVENHGEDYKAMARDEKNYYQDTPKQIRSKINVYKRFYPAEWQDFLDSLQKRKMEVE | binds |  |  |  | 
3 | 3xFLAG-tagged NOP16 (Nucleolar protein 16), wild type (protein, UniProt Q9Y3C1 1-178) MPKAKGKTRRQKFGYSVNRKRLNRNARRKAAPRIECSHIRHAWDHAKSVRQNLAEMGLAVDPNRAVPLRKRKVKAMEVDIEERPKELVRKPYVLNDLEAEASLPEKKGNTLSRDLIDYVRYMVENHGEDYKAMARDEKNYYQDTPKQIRSKINVYKRFYPAEWQDFLDSLQKRKMEVE | binds | no binding | no binding | binds | 
4 | 6xHis-tagged NOP16 (protein, UniProt Q9Y3C1 1-178) MPKAKGKTRRQKFGYSVNRKRLNRNARRKAAPRIECSHIRHAWDHAKSVRQNLAEMGLAVDPNRAVPLRKRKVKAMEVDIEERPKELVRKPYVLNDLEAEASLPEKKGNTLSRDLIDYVRYMVENHGEDYKAMARDEKNYYQDTPKQIRSKINVYKRFYPAEWQDFLDSLQKRKMEVE |  |  |  |  | binds
